# PubChem BioAssay AID488837 (National Center for Advancing Translational Sciences (NCATS), 2010)
# Chains of the proteins cited; added tags and fusions are not shown. Lines headed by an entry give the natural chain unless they say otherwise; changes in a name come on top.
# UniProt O00167: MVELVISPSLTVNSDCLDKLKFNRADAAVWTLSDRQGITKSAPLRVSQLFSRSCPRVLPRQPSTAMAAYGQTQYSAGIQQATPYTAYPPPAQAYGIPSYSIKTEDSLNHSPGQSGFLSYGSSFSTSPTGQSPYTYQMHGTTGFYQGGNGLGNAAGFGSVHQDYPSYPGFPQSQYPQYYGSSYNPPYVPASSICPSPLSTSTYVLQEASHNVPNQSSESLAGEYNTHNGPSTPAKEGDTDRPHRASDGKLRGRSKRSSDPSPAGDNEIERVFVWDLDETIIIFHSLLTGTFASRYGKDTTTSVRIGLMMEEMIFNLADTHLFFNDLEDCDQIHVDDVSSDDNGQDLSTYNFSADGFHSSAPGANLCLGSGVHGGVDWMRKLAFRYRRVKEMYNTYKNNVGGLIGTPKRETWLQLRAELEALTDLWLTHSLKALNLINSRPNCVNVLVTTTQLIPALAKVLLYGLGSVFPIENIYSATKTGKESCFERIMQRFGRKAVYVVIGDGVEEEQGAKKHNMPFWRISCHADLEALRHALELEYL
# About 20 (0.006%) of roughly 330,000 compounds were called active. Inconclusive means that the source gave no clear call. Such entries were picked first, then a sample of the others. Calls follow the shape of the dose curve; as a rule, active = well fitted inhibition curve with a large enough effect; inconclusive = small, poorly fitted or top-dose-only effect, or effect the other way; inactive = flat fitted curve, though single readings scatter. Potencies beside an inconclusive call are fits to weak or partial responses and may not hold up.
# Target: Protein phosphatase EYA2 (Homo sapiens) (UniProt O00167)
# Assay: qHTS Assay for Inhibitors of the Phosphatase Activity of Eya2
# Settings: recombinant Eya2, OMFP fluorescence dephosphorylation (OMFP is methylfluorescein phosphate); activity, negative = inhibition: at 76.9 µM (top of the series) unless noted
# Text: The Eya family of proteins are essential co-activators of the Six1 transcription factor. Six1 is a developmental gene that is abnormally re-expressed in a large percentage of breast cancers. This over-expression plays a causal role in the initiation and metastatic development of breast cancers. The Eya family of proteins was also found to contain a unique HAD phosphatase domain with protein tyrosine phosphatase activity which can potentially play a role in Six1-mediated breast tumorigenesis. […] We have developed and optimized a 1536 well fluorescence-based HTS assay targeting the phosphatase activity of Eya2. Inhibitors found against Eya2 could serve as potential therapeutic tools to inhibit Six1-mediated breast tumorigenesis and to increase the efficiency of radiation and certain chemo therapy. These inhibitors could also be used as chemical probes to study the function of Eya2's phosphatase activity and its role in Six1-mediated breast tumorigenesis.
# The Eya2 enzyme was kindly provided by the laboratory of Dr. Rui Zhao. The 3-O-methyl-fluorescein phosphate (OMFP) substrate and all buffer reagents were purchased from Sigma Aldrich. qHTS Assay Setup: 1. Buffer- 50 mM HEPES pH 7.5, 50 mM NaCl, 5 uM MgCl2, 0.05% BSA, 1 mM DTT. 2. OMFP Stock- 10 mM solution prepared in 100% DMSO and stored in single use aliquots at -20C. Assay Procedure- 1. Dispense 1.5 ul per well of Eya2 at 0.2 uM in black medium binding 1536 well Greiner plate 2. Transfer 23 nl of compound and control compound (EGTA) to plate 3. Incubate at ambient for 10 minutes 4. Dispense 1.5 ul per well of OMFP at 50 uM 5. Incubate at ambient for 10 minutes 6. Read on ViewLux using Excitation = 485 nm, Emission = 525 nm
# % is scaled to controls: 0 for no effect and ±100 for the full control effect; potency is read from the fitted curve at half-maximal effect.
Compound,Potency,"activity, negative = inhibition"
Cc1cc(=O)oc(C)c1C(=O)NNC(=O)C1(C)CC1Br (stereo unspecified),"inconclusive: 100 µM [inhibitor, single point]",
Cn1ncc(S(=O)(=O)Cc2ccccc2)c(Br)c1=O,inactive,
O=C(C1CCC(=O)N(C2CCCC2)C1)N1CCC(Oc2cccc(F)c2)CC1 (stereo unspecified),"inconclusive: 15.8 µM [inhibitor, partial curve]",
Cc1cc(C)c(NC(=O)COc2ccc(-n3cnnn3)cc2)c(C)c1,"inconclusive: 100 µM [inhibitor, single point]",
C=CCn1c(-c2cccs2)nc2ccccc21,inactive,
CCCCC(=O)NC(c1ccccc1)c1ccc2cccnc2c1O (stereo unspecified),inactive,
O=C(CSc1nc2ccc(Nc3nc(N4CCOCC4)nc(N4CCOCC4)n3)cc2s1)NCc1ccco1,"inconclusive: 22.4 µM [inhibitor, single point]",
CCCCC(=O)Nc1ccc(C(=O)NCCN2CCOCC2)cc1,inactive,
O=C(c1ccccc1Cl)N(Cc1ccc(Br)cc1)N1C(=O)CCC1=O,"inconclusive: 89.1 µM [inhibitor, single point]",
CCCCCCN1C=CC=C/C1=C\C=C(C#N)C#N,,inconclusive: 31.7% [activator]
COc1ccc(N2C(=O)C3C(C2=O)C(C(=O)c2ccc(Cl)cc2)N2CCCC32)cc1 (stereo unspecified),"inconclusive: 25.1 µM [inhibitor, partial curve, poor fit]",
CCN(CC(=O)NC(C)C)Cc1nc2c(Br)cc(Br)cc2c(=O)[nH]1,"inconclusive: 89.1 µM [inhibitor, single point]",
O=S(=O)(NCc1cc(-c2ccc(Cl)cc2)no1)c1ccccc1,"inconclusive: 31.6 µM [inhibitor, single point]",
CSc1ncccc1C(=O)OCC(=O)N(C)C,"inconclusive: 100 µM [inhibitor, single point]",
Cc1ccc(N(CC(=O)N2CCOCC2)S(C)(=O)=O)cc1Cl,"inconclusive: 17.8 µM [inhibitor, partial curve]",
CCN(CC(=O)Nc1cc(C)c(Cl)cc1OC)CC(=O)NC1CCS(=O)(=O)C1 (stereo unspecified),"inconclusive: 126 µM [inhibitor, partial curve, poor fit]",
Cc1ccccc1N(C(=O)CNC(=O)c1cccs1)C(C(=O)NC1CCCC1)c1ccncc1 (stereo unspecified),"inconclusive: 17.8 µM [inhibitor, single point]",
Cc1[nH]c2ccccc2c1-c1nc2ccccc2[nH]1,inactive,
Cc1ccnc2nc(C(=O)OCCOc3ccc(F)cc3)nn12,"inconclusive: 112 µM [inhibitor, partial curve]",
COc1cscc1C(=O)O,"inconclusive: 100 µM [inhibitor, single point]",
Cc1cnn(Cc2ccccc2)c1N,"inconclusive: 63.1 µM [inhibitor, single point]",
N#C/C(=C/c1ccc(N2CCOCC2)o1)c1nc2ccccc2[nH]1,"inconclusive: 39.8 µM [activator, partial curve]",
CC(C)OC(=O)CSc1nc2cccnc2n1-c1ccc(F)cc1,"inconclusive: 89.1 µM [inhibitor, single point]",
O=C(O)CCCNc1cc(N2CCC3(CC2)OCCO3)c2noc3c2c1C(=O)c1ccccc1-3,,inconclusive: 63% [activator]
Cc1noc2ncnc(N3CCCCC3)c12,"inconclusive: 251 µM [inhibitor, single point]",
O=C(O)CC(C(=O)O)N1C(=O)/C(=C/C=C/c2ccco2)SC1=S (stereo unspecified),inactive,

Compound,Potency,"activity, negative = inhibition"
CS(=O)(=O)N(CC(=O)N1CCOCC1)c1cccc([N+](=O)[O-])c1,"inconclusive: 28.2 µM [inhibitor, single point]",
Cc1cc([N+](=O)[O-])nn1CCC(=O)Nc1nccs1,inactive,
CCN(CC)S(=O)(=O)c1ccc(NC(=O)COC(=O)CNS(=O)(=O)/C=C/c2ccccc2)cc1,inactive,
CCN(CC)CCCNC(=O)c1cn(CCOC)c(=O)c2c1c1ccccc1n2C,inactive,
COCCCNC(=S)N/N=C/c1ccccc1O,inactive,
Cc1cc(C)n(-c2ccc(C(=O)NCC(c3ccco3)N3CCCC3)cc2)n1 (stereo unspecified),"inconclusive: 112 µM [inhibitor, single point]",
COc1cccc(C(C(=O)NC(C)(C)C)N(Cc2ccc(C)cc2)C(=O)CCC(=O)Nc2cc(C)on2)c1OC (stereo unspecified),"inconclusive: 178 µM [inhibitor, partial curve]",
COc1ccc(C)cc1Nc1nc(N)c2ccccc2n1,inactive,
C=C(C)CNC(=S)N=Nc1c(O)[nH]c2ccc([N+](=O)[O-])cc12,inactive,
O=C1C2CC=C(Cl)CC2C(=O)N1CC1OCCc2ccccc21 (stereo unspecified),inactive,
CC1CC(C)CN(CC(O)COCc2ccccc2)C1 (stereo unspecified),"inconclusive: 126 µM [inhibitor, single point]",
CCC(c1nnc(SCC(=O)Nc2cc(S(C)(=O)=O)ccc2Cl)n1Cc1ccccc1)N(C)C (stereo unspecified),inactive,
O=C(O)c1ccc(N/N=C/c2ccncc2)cc1,inactive,
CC(C)(C)NS(=O)(=O)c1ccc(CCC(=O)NCc2ccco2)cc1,inactive,
Cc1ccc2c(c1)COc1c3ccc(C(=O)NCCO)cc3nn1-2,inactive,
NNC(=O)c1sccc1OCc1cccc(C(F)(F)F)c1,"inconclusive: 126 µM [inhibitor, partial curve, poor fit]",
C=CCNC(=S)NN=C1CCCCCCC1,inactive,
Cc1ccc(/C=N/n2c(-c3ccc(Cl)cc3)n[nH]c2=S)s1,inactive,
CCN(C(=O)COC(=O)c1ccccc1Nc1cccc(C)c1C)C1CCS(=O)(=O)C1 (stereo unspecified),"inconclusive: 22.4 µM [inhibitor, single point]",
COC(=O)c1cc(NC(=O)c2ccc3c(c2)NC(=O)c2ccccc2S3)cc(C(=O)OC)c1,inactive,
O=C(NC(=S)NNC(=O)c1cnccn1)c1ccc(Cl)cc1,inactive,
CC1Cc2ccccc2N1CC(=O)Nc1ccc2c(c1)OCCCO2 (stereo unspecified),"inconclusive: 100 µM [inhibitor, single point]",
C=CC[n+]1ccc(/C=C2\C=Cc3cc(C)ccc3N2CC)c2ccccc21,"inconclusive: 20 µM [inhibitor, single point]",
Cc1cccc(C=Nc2ccc3c(c2)oc2ccccc23)c1O,inactive,
COc1ccc2[nH]cc(CCNC(=O)CCC3CCCCC3)c2c1,"inconclusive: 25.1 µM [inhibitor, single point]",
COc1ccc2nc(-c3ccccc3)[nH]c2c1,inactive,

Compound,Potency,"activity, negative = inhibition"
CN(C(=O)c1cccc(OC2CCN(S(=O)(=O)N(C)C)CC2)c1)C1CCOC1 (stereo unspecified),"inconclusive: 158 µM [inhibitor, partial curve]",
COc1ccc(N/C=C/C(=O)c2cc(OC)c(OC)c(OC)c2)cc1,inactive,
CCOc1cccc2cc(-c3csc(NC(=O)CCC(=O)NCCN4CCCCC4C)n3)c(=O)oc12 (stereo unspecified),"inconclusive: 25.1 µM [inhibitor, single point]",
O=C(CSc1nc2ccccc2c(=O)n1CCC(=O)N1CCN(c2ccccc2)CC1)NCC1CCCO1 (stereo unspecified),inactive,
Cc1c(OCC(=O)N2CCC(C(=O)O)CC2)ccc2c1oc(=O)c1ccccc12,"inconclusive: 112 µM [inhibitor, single point]",
COc1ccc(S(=O)(=O)N2CCCCC2)cc1NC(=O)CCNC(=O)c1ccccc1Cl,"inconclusive: 100 µM [inhibitor, single point]",
O=C(O)COc1ccc(NC(=O)c2ccc3c(c2)C(=O)N(Cc2ccccc2)C3=O)cc1,"inconclusive: 126 µM [inhibitor, single point]",
COC(=O)C1CCCCN1C(=O)c1ccc(OC2CCN(C(C)=O)CC2)c(OC)c1 (stereo unspecified),inactive,
CCN(C(=O)COC(=O)c1cc(C)oc1C)c1c(N)n(Cc2ccccc2)c(=O)[nH]c1=O,"inconclusive: 100 µM [inhibitor, single point]",
CN=c1scc(-c2c[nH]c3ccccc23)n1C,"inconclusive: 100 µM [inhibitor, single point]",
CCOC(=O)c1nn(-c2ccc(C)cc2)c(=O)cc1OCC(=O)Nc1cccc(OC)c1,inactive,
O=C(O)c1ccc(NC(=O)c2ccccc2NC(=O)c2ccccc2Cl)cc1,"inconclusive: 100 µM [inhibitor, single point]",
Cc1ccc(CNc2nc(Cl)c(C#N)s2)cc1,"inconclusive: 63.1 µM [inhibitor, partial curve, poor fit]",
C/C(=N\NC(=O)c1cc(-c2cccc([N+](=O)[O-])c2)n[nH]1)c1ccc(F)cc1,"inconclusive: 63.1 µM [inhibitor, partial curve, poor fit]",
COc1cccc(/C=N/NC(=O)N/N=C/c2cccc(OC)c2O)c1O,inactive,
Cc1ccc(O)c(NC2=C(Cl)C(=O)N(Cc3ccccc3)C2=O)c1,inactive,
O=C(Nc1nncs1)c1cccc(S(=O)(=O)N2CCCC2)c1,inactive,
O=C(O)CSc1cc(NS(=O)(=O)c2cccc([N+](=O)[O-])c2)c2ccccc2c1O,inactive,
COc1ccc(SN=C2C(C)=CC(=O)C=C2C)cc1,inactive,
COc1ccc(N2C(=O)N3[C@@H]4c5ccccc5OC[C@@H]4[C@@H](c4ccccc4)[C@@]3(C)C2=O)cc1,inactive,
Cc1ccc(C)c(C(=O)COC(=O)c2ccccc2N2C(=O)C3C4CCC(C4)C3C2=O)c1 (stereo unspecified),inactive,
O=C(N/N=C/c1ccccc1O)c1cc[n+]([O-])cc1,inactive,
COc1ccc(C(=O)NC(C(=O)NCC2(N3CCCCC3)CCCCC2)C(C)C)cc1 (stereo unspecified),"inconclusive: 20 µM [inhibitor, single point]",
COc1ccc(C(=O)CCC(=O)N2CCN(c3cccc(Cl)c3)CC2)cc1,inactive,

# By substructure, the compounds so far with a tert-butyl group (two)
Compound,Potency,"activity, negative = inhibition"
COc1cccc(C(C(=O)NC(C)(C)C)N(Cc2ccc(C)cc2)C(=O)CCC(=O)Nc2cc(C)on2)c1OC (stereo unspecified),"inconclusive: 178 µM [inhibitor, partial curve]",
CC(C)(C)NS(=O)(=O)c1ccc(CCC(=O)NCc2ccco2)cc1,inactive,
